# Source: the supplement of paper PMC7024190
# Where a name gives a salt, the structure may show the parent alone. Some of the results follow. Single values are uncertain here, since repeats match poorly.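 A first-round screen of about ten thousand compounds sought those raising reporter output, using human embryonic kidney cells briefly transfected with a plasmid carrying a Renilla luciferase gene driven by the HSV-TK promoter.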
# Test system: HEK 293FT
# Assay: log relative Renilla luciferase luminescence (reporter expression vs reference, reference not stated) (log (base not stated)); higher = higher recombinant reporter expression
# Conditions: 10 µM; time after transfection 48 h
row,Structure (SMILES),log
1,O=c1[nH]c2ccccc2n1C1CCN(CCCC(c2ccc(F)cc2)c2ccc(F)cc2)CC1 [Pimozide],-0.00821
2,C[C@]12CC[C@@H](O)C[C@H]1CC[C@@H]1[C@@H]2CC[C@]2(C)C(=O)CC[C@@H]12 [3-alpha-Hydroxy-5-beta-androstan-17-one],0.109
3,C[C@@H]1O[C@@H](O[C@@H]2C=C3CC[C@@H]4[C@H](CC[C@]5(C)[C@@H](c6ccc(=O)oc6)CC[C@]45O)[C@@]3(C)CC2)[C@H](O)[C@H](O)[C@H]1O [Proscillaridin A],-1.09
4,C#CCN(C)[C@H](C)Cc1ccccc1 [Selegiline hydrochloride],0.185
5,CN(C)C(=O)Oc1cccc([N+](C)(C)C)c1 [Neostigmine bromide],0.0115
6,"CNC(=O)Oc1ccc2c(c1)[C@]1(C)CCN(C)[C@@H]1N2C [Eserine sulfate, physostigmine sulfate]",-0.628
7,COc1ccc(C(CN(C)C)C2(O)CCCCC2)cc1 (stereo not drawn) [Venlafaxine],0.148
8,CCNCC(O)c1cccc(O)c1 (stereo not drawn) [Etilefrine hydrochloride],-0.0312
9,CC(C)(N)Cc1ccccc1 [Phentermine hydrochloride],-0.182
10,CN1[C@@H]2CC[C@H]1C[C@@H](OC(=O)C(CO)c1ccccc1)C2 (stereo partly drawn) [Atropine sulfate monohydrate],-0.098
11,CC(C)C[C@H]1C(=O)N2CCC[C@H]2[C@]2(O)O[C@](NC(=O)[C@@H]3C=C4c5cccc6[nH]c(Br)c(c56)C[C@H]4N(C)C3)(C(C)C)C(=O)N12 [Bromocryptine mesylate],-0.0719
12,CCC1=C[C@H]2CN3CCc4c([nH]c5ccccc45)[C@](C(=O)OC)(C2)[C@H]13 [Catharanthine],0.0641
13,CNC(C)(C)Cc1ccccc1 [Mephentermine hemisulfate],-0.0609
14,C[C@]12CCC(=O)C(O)=C1CC[C@@H]1[C@@H]2CC[C@]2(C)C(=O)CC[C@@H]12 [Formestane],0.101
15,CN1C(=O)CCS(=O)(=O)C1c1ccc(Cl)cc1 (stereo not drawn) [Chlormezanone],-0.00526
16,C[C@]12COC(=O)C[C@@H]1CC[C@@H]1[C@@H]2CC[C@@]2(C)[C@H]1CC[C@]2(C)O [Oxandrolone],-0.137
17,O=P1(N(CCCl)CCCl)NCCCO1 (stereo not drawn) [Cyclophosphamide],0.1
18,C=C1C[C@@H]2[C@H](CC[C@]3(C)C(=O)CC[C@@H]23)[C@@]2(C)C=CC(=O)C=C12 [Exemestane],0.0207
19,CC(=O)[C@H]1CC[C@H]2[C@@H]3CC[C@H]4C[C@H](O)CC[C@]4(C)[C@H]3C(=O)C[C@]12C [Alfaxalone],0.0914
20,CCC1(C)CC(=O)NC(=O)C1 [Bemegride],0.131
21,CCCC(C)(COC(N)=O)COC(=O)NC(C)C (stereo not drawn) [Carisoprodol],-0.0946
22,OC(c1ccccc1)(c1ccccc1)C1CCNCC1 [Azacyclonol],-0.0223
23,C[N+]1(C)CCCC(OC(=O)C(O)(c2ccccc2)c2ccccc2)C1 (stereo not drawn) [Mepenzolate bromide],0.0221
24,C[C@@H]1CN([C@H]2CC[C@](C#N)(c3ccc(F)cc3)CC2)CC[C@]1(C(=O)O)c1ccccc1 [Levocabastine hydrochloride],-0.0127
25,C=CCC1(CC(C)C)C(=O)NC(=O)NC1=O [Butalbital],-0.0555

row,Structure (SMILES),log
1,O=C(CCCN1CCC(n2c(=O)[nH]c3ccccc32)CC1)c1ccc(F)cc1 [Benperidol],0.0824
2,CCC(=O)O[C@H]1CC[C@H]2[C@@H]3CCC4=CC(=O)CC[C@]4(C)[C@H]3CC[C@]12C [Testosterone propionate],-0.54
3,COc1ccc(OC)c(C(O)C(C)N)c1 (stereo not drawn) [Methoxamine hydrochloride],0.0676
4,O=[N+]([O-])c1cc([As](=O)(O)O)ccc1O [Roxarsone],0.0878
5,C[C@]12CC[C@H](O)C[C@@H]1CC[C@@H]1[C@@H]2CC[C@]2(C)C(=O)CC[C@@H]12 [Epiandrosterone],-0.182
6,CCn1cc(C(=O)O)c(=O)c2cc3c(cc21)OCO3 [Oxolinic acid],0.0753
7,CN(C)C(=O)Oc1cc(OC(=O)N(C)C)cc(C(O)CNC(C)(C)C)c1 (stereo not drawn) [Bambuterol hydrochloride],-0.416
8,CCN(C)C(=O)Oc1cccc([C@H](C)N(C)C)c1 [Rivastigmine],-0.00821
9,CC[C@@]1([C@@H]2O[C@@H]([C@H]3O[C@@](O)(CO)[C@H](C)C[C@@H]3C)C[C@@H]2C)CC[C@H]([C@]2(C)CC[C@]3(C[C@H](O)[C@@H](C)[C@@H]([C@@H](C)[C@@H](OC)[C@H](C)C(=O)O)O3)O2)O1 [Monensin sodium salt],-0.13
10,"CCC1(c2ccc(N)cc2)CCC(=O)NC1=O (stereo not drawn) [Glutethimide, para-amino]",0.0824
11,CN1[C@@H]2CC[C@H]1C[C@@H](OC1c3ccccc3CCc3ccccc31)C2 [Deptropine citrate],0.119
12,"NCC(O)c1ccc(O)cc1 (racemic) [(+,-)-Octopamine hydrochloride]",0.0806
13,CCC1(CC)C(=O)C=CNC1=O [Pyrithyldione],-0.16
14,COc1ccc(Cc2nccc3cc(OC)c(OC)cc23)cc1OC [Papaverine hydrochloride],-0.284
15,Fc1ccc(C(OCCN2CCN(CCCc3ccccc3)CC2)c2ccc(F)cc2)cc1,-0.601
16,CC(C)(C)NCC(O)c1cc(Cl)c(N)c(Cl)c1 (stereo not drawn) [Clenbuterol hydrochloride],-0.0154
17,COc1ccc(CCN2CCC(Nc3nc4ccccc4n3Cc3ccc(F)cc3)CC2)cc1 [Astemizole],0.0079
18,CC(=O)O[C@H]1C[C@H](O[C@H]2[C@@H](O)C[C@H](O[C@H]3[C@@H](O)C[C@H](O[C@H]4CC[C@@]5(C)[C@H](CC[C@@H]6[C@@H]5C[C@@H](O)[C@]5(C)[C@@H](C7=CC(=O)OC7)CC[C@]65O)C4)O[C@@H]3C)O[C@@H]2C)O[C@H](C)[C@H]1O[C@@H]1O[C@H](CO)[C@@H](O)[C@H](O)[C@H]1O [Lanatoside C],-1.12
19,CCN(CC)C(C)C(=O)c1ccccc1 (stereo not drawn) [Amfepramone hydrochloride],-0.0293
20,O[C@@H]1CCCC[C@H]1N1CCC(c2ccccc2)CC1 [L(-)-vesamicol hydrochloride],0.172
21,C[C@]12N[C@H](Cc3ccccc31)c1ccccc12 [Dizocilpine maleate],0.0626
22,C[N+]1([O-])[C@@H]2C[C@@H](OC(=O)[C@H](CO)c3ccccc3)C[C@H]1[C@@H]1O[C@@H]12 (stereo partly drawn) [Scopolamin-N-oxide hydrobromide],0.0569
23,Oc1cc(Cl)ccc1Oc1ccc(Cl)cc1Cl [Triclosan],0.0896
24,C[C@@]12N[C@@H](Cc3ccccc31)c1ccccc12 [(-)-MK 801 hydrogen maleate],0.0984
25,C[N+]12CCC(CC1)C(OC(=O)C(O)(c1ccccc1)c1ccccc1)C2 (stereo not drawn) [Clidinium bromide],-0.111

# Single values from the entries so far:
# Entry of Oc1cc(Cl)ccc1Oc1ccc(Cl)cc1Cl [Triclosan] under log: 0.0896
# Entry of C[N+]12CCC(CC1)C(OC(=O)C(O)(c1ccccc1)c1ccccc1)C2 (stereo not drawn) [Clidinium bromide] under log: -0.111

# Going on with the list:

row,Structure (SMILES),log
1,"CC(=O)OCC1=C(C(=O)O)N2C(=O)[C@@H](N)[C@H]2SC1 [Cephalosporanic acid, 7-amino]",-0.21
2,CO[C@]12C[C@@H](COC(=O)c3cncc(Br)c3)CN(C)[C@@H]1Cc1cn(C)c3cccc2c13 [Nicergoline],0.163
3,CC(C)(C)NCC(O)c1ccccc1Cl (stereo not drawn) [Tulobuterol],0.0444
4,C[C@]12Cc3c[nH]nc3C[C@@H]1CC[C@@H]1[C@@H]2CC[C@@]2(C)[C@H]1CC[C@]2(C)O [Stanozolol],-0.196
5,C[C@@H]1CC[C@H]2[C@@H](C)C(=O)O[C@@H]3O[C@@]4(C)CC[C@@H]1[C@]32OO4 [Artemisinin],0.0503
6,CCC1(c2cccc(O)c2)CCCCN(C)C1 (stereo not drawn) [Meptazinol hydrochloride],-0.0505
7,CCNC1(c2cccs2)CCCCC1=O (stereo not drawn) [Tiletamine hydrochloride],0.111
8,COc1cc([C@@H]2c3cc4c(cc3[C@H](O)[C@H]3COC(=O)[C@H]23)OCO4)cc(OC)c1OC [Podophyllotoxin],-0.0637
9,NCCc1c[nH]c2ccc(O)cc12 [Serotonin hydrochloride],-0.15
10,CCN(C(C)=O)c1cccc(-c2ccnc3c(C#N)cnn23)c1 [Zaleplon],0.0175
11,NC(=O)C[S+]([O-])C(c1ccccc1)c1ccccc1 (stereo not drawn) [Modafinil],-0.0359
12,CC(=O)NC1CCSC1=O (racemic) [N-Acetyl-DL-homocysteine Thiolactone],0.121
13,CC(Cc1ccccc1)NCCC(c1ccccc1)c1ccccc1 (stereo not drawn) [Prenylamine lactate],0.109
14,C[C@]12CC[C@H](O)C[C@H]1CC[C@@H]1[C@@H]2C[C@@H](O)[C@]2(C)[C@@H](C3=CC(=O)OC3)CC[C@]12O [Digoxigenin],-1.52
15,CN1CCN(C(=O)OC2c3nccnc3C(=O)N2c2ccc(Cl)cn2)CC1 (stereo not drawn) [Zopiclone],-0.07
16,Clc1ccc(C(OCCN2CCCCC2)c2ccccc2)cc1 (stereo not drawn) [Cloperastine hydrochloride],0.0275
17,Cc1cccc(C)c1NC1=NCCCS1 [Xylazine],-0.172
18,NC(=O)CN1CCCC1=O [Piracetam],0.15
19,COc1cc2c(cc1OC)C(C)NCC2 (stereo not drawn),0.142
20,CC(C)c1c(CN(C)C(C)Cc2ccccc2)n(C)n(-c2ccccc2)c1=O (stereo not drawn) [Famprofazone],0.0984
21,C=C(C)[C@@H]1[C@H]2OC(=O)[C@@H]1[C@]1(O)C[C@H]3O[C@]34C(=O)O[C@H]2[C@]14C [Picrotoxinin],0.0787
22,O=P1(NCCCl)OCCCN1CCCl (stereo not drawn) [Ifosfamide],-0.0709
23,CC(=O)OCC(=O)[C@H]1CC[C@H]2[C@@H]3CC[C@H]4C[C@H](O)CC[C@]4(C)[C@H]3C(=O)C[C@]12C [Alfadolone acetate],-0.00821

# In a second layout: entries from further up
row	Structure (SMILES)	log
5	C[C@@H]1CC[C@H]2[C@@H](C)C(=O)O[C@@H]3O[C@@]4(C)CC[C@@H]1[C@]32OO4 [Artemisinin]	0.0503
8	COc1cc([C@@H]2c3cc4c(cc3[C@H](O)[C@H]3COC(=O)[C@H]23)OCO4)cc(OC)c1OC [Podophyllotoxin]	-0.0637
17	Cc1cccc(C)c1NC1=NCCCS1 [Xylazine]	-0.172
22	O=P1(NCCCl)OCCCN1CCCl (stereo not drawn) [Ifosfamide]	-0.0709
